According to patent US4224332A, “1-Aza-[2,2,2]-bicyclooctanes and anti-depressant and anti-parkinsonian compositions thereof” (Pharmindustrie, priority 1978, dated 1980):

Assays:
Format in all cases: biochemical
Conditions in all cases: in vitro
uptake of the choline = experiment: inhibition of the uptake of choline by synaptosomes of the rat's brain, striatum
[1] = tested on: uptake of the serotonine (5-HT); experiment: inhibition of the uptake of serotonine (5-HT) by synaptosomes of the rat's brain, medulla + pons
[2] = tested on: uptake of the noradrenaline (NA); experiment: inhibition of the uptake of noradrenaline (NA) by synaptosomes of the rat's brain, hypothalamus

In the case of CN1Cc2c(N)cccc2C(c2ccccc2)C1 (stereo not drawn) [Nomifensine, reference compound], the IC50 (uptake of the choline) is reported as 1000 µM, the IC50 [1] is reported as 4 µM and the IC50 [2] is reported as 0.022 µM.
